PubChem BioAssay AID504774 – Drosophila RNAi Screening Center | 2011

Assay: 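Genes required for cells to withstand methyl methanesulphonate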 (primary screen)
Cells: Drosophila Kc167 cells
Reagent: long dsRNA against Drosophila genes, about 0.25 µg dsRNA per well
Timing: about 6 days: 3 days knock-down, then 3 days with or without MMS
Conditions: methyl methanesulphonate 0.004% (w/v) for 3 days after knock-down
Measured: 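Viability in wells given MMS, read as ATP luminescence, normalised by quantiles plate by plate and averaged across replicates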
Direction: mean viability with MMS and viability with MMS: higher = more surviving cells after MMS
In all, the deposit lists about 23,000 reagents; below is a random part of those that have a named target and a result. 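Values are quantile-normalised luminescence on an arbitrary scale; higher means more cells surviving MMS.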 Reagents against one gene are numbered here. A plus sign joins genes that one reagent is predicted to hit. No sequences are given here.

| gene knocked down | reagent | mean viability with MMS | viability with MMS, replicate 1 | viability with MMS, replicate 2 |
| --- | --- | --- | --- | --- |
| TwdlG | 1 | 3.56e6 | 3.96e6 | 4.11e6 |
| CG13978 | 1 | 3.53e6 | 3.97e6 | 4.03e6 |
| Sse | 1 | 3.40e6 | 3.82e6 | 3.92e6 |
| CG6738 | 1 | 3.64e6 | 4.26e6 | 4.00e6 |
| CG6125 | 1 | 3.57e6 | 4.09e6 | 4.03e6 |
| Tsp42Ep | 1 | 3.57e6 | 3.89e6 | 4.00e6 |
| CG14692 | 1 | 3.52e6 | 4.03e6 | 3.97e6 |
| Mgat4b | 1 | 3.56e6 | 4.14e6 | 3.93e6 |
| CG30495 | 1 | 3.56e6 | 4.01e6 | 4.05e6 |
| Gr47a | 1 | 3.53e6 | 4.01e6 | 4.00e6 |
| Ir68b | 1 | 3.55e6 | 3.99e6 | 4.05e6 |
| AOX1 | 1 | 3.23e6 | 3.79e6 | 3.62e6 |
| CG15406 | 1 | 3.64e6 | 4.16e6 | 4.05e6 |
| CG12118 | 1 | 3.50e6 | 3.96e6 | 3.94e6 |
| Sox102F | 1 | 3.62e6 | 4.11e6 | 4.08e6 |
| CG11293 (retired record) | 1 | 3.71e6 | 4.17e6 | 4.20e6 |
| CG13043 | 1 | 3.46e6 | 3.89e6 | 3.93e6 |
| emp | 1 | 3.84e6 | 4.54e6 | 4.15e6 |
| emp | 2 | 3.56e6 | 4.22e6 | 3.97e6 |
| CG15594 | 1 | 3.40e6 | 3.85e6 | 3.89e6 |
| Rcd5 | 1 | 3.74e6 | 4.22e6 | 4.25e6 |
| Leash | 1 | 3.58e6 | 4.14e6 | 3.96e6 |
| CG8149 | 1 | 3.63e6 | 4.09e6 | 4.08e6 |
| Doa | 1 | 3.44e6 | 3.98e6 | 3.81e6 |
| Doa | 2 | 3.42e6 | 3.91e6 | 3.82e6 |
| Doa | 3 | 3.48e6 | 3.89e6 | 4.01e6 |
| Doa | 4 | 3.49e6 | 3.91e6 | 4.01e6 |
| Doa | 5 | 3.45e6 | 3.88e6 | 3.93e6 |
| Doa | 6 | 3.37e6 | 3.79e6 | 3.89e6 |
| Cen | 1 | 3.36e6 | 3.72e6 | 3.69e6 |
| Sry-delta | 1 | 3.50e6 | 4.04e6 | 3.92e6 |
| CG7196 (retired record) | 1 | 3.79e6 | 4.16e6 | 4.27e6 |
| CG7196 (retired record) | 2 | 3.32e6 | 3.70e6 | 3.76e6 |
| CG4681 | 1 | 3.43e6 | 3.99e6 | 3.76e6 |
| pita | 1 | 3.83e6 | 4.53e6 | 4.14e6 |
| pita | 2 | 3.66e6 | 4.09e6 | 4.10e6 |
| CG14985 | 1 | 3.38e6 | 3.70e6 | 3.92e6 |
| CG14985 | 2 | 3.59e6 | 4.04e6 | 4.08e6 |
| CG13293 | 1 | 3.55e6 | 4.03e6 | 4.03e6 |
| CG11147 | 1 | 3.38e6 | 3.84e6 | 3.76e6 |
| CG8908 | 1 | 3.48e6 | 3.94e6 | 3.94e6 |
| CG30355 | 1 | 3.62e6 | 4.05e6 | 4.10e6 |

Copied from the list.
Under “viability with MMS, replicate 2”, CG11147 shows 3.76e6
Under “viability with MMS, replicate 1”, TwdlG has 3.96e6
Entry of Doa #3 under “viability with MMS, replicate 1”: 3.89e6
CG14692, mean viability with MMS → 3.52e6
CG6738, viability with MMS, replicate 1 → 4.26e6

The list goes on:
| gene knocked down | reagent | mean viability with MMS | viability with MMS, replicate 1 | viability with MMS, replicate 2 |
| --- | --- | --- | --- | --- |
| Fit1 | 1 | 3.57e6 | 4.06e6 | 4.04e6 |
| p24-1 | 1 | 3.50e6 | 4.03e6 | 3.91e6 |
| COX8 | 1 | 3.50e6 | 3.86e6 | 4.05e6 |
| side-V | 1 | 3.52e6 | 3.78e6 | 3.71e6 |
| side-V | 2 | 2.02e6 | 4.25e6 | – |
| side-V | 3 | 3.37e6 | 3.92e6 | 3.84e6 |
| CG7991 | 1 | 3.63e6 | 4.09e6 | 4.10e6 |
| CG13108 | 1 | 3.68e6 | 4.36e6 | 3.98e6 |
| CG3492 | 1 | 3.67e6 | 4.21e6 | 3.78e6 |
| CG31817 | 1 | 3.51e6 | 4.09e6 | 3.89e6 |
| CG31817 | 2 | 3.57e6 | 4.12e6 | 3.95e6 |
| CG31817 | 3 | 3.57e6 | 3.96e6 | 4.09e6 |
| CG13021 | 1 | 3.40e6 | 3.85e6 | 3.87e6 |
| Hsepi | 1 | 3.48e6 | 3.95e6 | 3.92e6 |
| CG6974 | 1 | 3.57e6 | 4.22e6 | 3.90e6 |
| Kdm4A | 1 | 3.70e6 | 4.21e6 | 4.19e6 |
| MnM | 1 | 3.51e6 | 3.93e6 | 4.02e6 |
| CG3176 + CR18166 + CG32817 | 1 | 3.73e6 | 4.20e6 | 4.12e6 |
| CG3176 + CR18166 + CG32817 | 2 | 3.70e6 | 4.14e6 | 4.14e6 |
| CG3176 + CR18166 + CG32817 | 3 | 3.71e6 | 4.04e6 | 4.35e6 |
| CG31633 | 1 | 3.56e6 | 3.97e6 | 4.10e6 |
| CG9344 | 1 | 3.48e6 | 3.97e6 | 3.91e6 |
| CG12645 | 1 | 3.60e6 | 4.08e6 | 4.06e6 |
| CG31741 | 1 | 3.41e6 | 3.85e6 | 3.89e6 |
| Caf1-105 | 1 | 3.41e6 | 3.90e6 | 3.84e6 |
| CG17127 | 1 | 3.62e6 | 4.25e6 | 3.96e6 |
